Screening data, single-dose tests

Chains of the proteins cited; added tags and fusions are not shown. Residues count along the entry.
UniProt Q4DA54, 1-478: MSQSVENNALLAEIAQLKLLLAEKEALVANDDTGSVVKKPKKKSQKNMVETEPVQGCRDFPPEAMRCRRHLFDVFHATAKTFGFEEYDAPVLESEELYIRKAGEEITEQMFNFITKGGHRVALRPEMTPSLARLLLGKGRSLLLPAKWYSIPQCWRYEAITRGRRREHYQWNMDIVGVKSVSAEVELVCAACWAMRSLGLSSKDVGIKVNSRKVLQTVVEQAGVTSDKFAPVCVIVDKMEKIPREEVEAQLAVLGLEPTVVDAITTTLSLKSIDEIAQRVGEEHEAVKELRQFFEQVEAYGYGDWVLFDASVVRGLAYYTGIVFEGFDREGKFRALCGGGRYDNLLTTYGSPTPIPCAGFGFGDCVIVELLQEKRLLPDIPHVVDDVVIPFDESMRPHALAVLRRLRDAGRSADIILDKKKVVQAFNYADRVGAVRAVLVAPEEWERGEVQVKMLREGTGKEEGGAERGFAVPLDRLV
UniProt A4I591, 1-473: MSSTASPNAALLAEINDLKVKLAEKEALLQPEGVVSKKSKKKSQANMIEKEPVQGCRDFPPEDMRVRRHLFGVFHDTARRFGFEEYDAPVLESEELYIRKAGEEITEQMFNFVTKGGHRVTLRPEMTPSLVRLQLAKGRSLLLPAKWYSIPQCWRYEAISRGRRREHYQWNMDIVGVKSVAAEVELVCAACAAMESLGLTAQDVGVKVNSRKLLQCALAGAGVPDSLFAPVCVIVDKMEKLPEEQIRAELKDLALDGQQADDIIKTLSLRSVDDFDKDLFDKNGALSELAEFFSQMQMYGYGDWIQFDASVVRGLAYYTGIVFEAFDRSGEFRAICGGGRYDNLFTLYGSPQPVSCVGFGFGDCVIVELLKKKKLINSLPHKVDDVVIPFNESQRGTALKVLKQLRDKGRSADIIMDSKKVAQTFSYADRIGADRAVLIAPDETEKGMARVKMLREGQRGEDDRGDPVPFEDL
UniProt Q8IDJ8, 1-583: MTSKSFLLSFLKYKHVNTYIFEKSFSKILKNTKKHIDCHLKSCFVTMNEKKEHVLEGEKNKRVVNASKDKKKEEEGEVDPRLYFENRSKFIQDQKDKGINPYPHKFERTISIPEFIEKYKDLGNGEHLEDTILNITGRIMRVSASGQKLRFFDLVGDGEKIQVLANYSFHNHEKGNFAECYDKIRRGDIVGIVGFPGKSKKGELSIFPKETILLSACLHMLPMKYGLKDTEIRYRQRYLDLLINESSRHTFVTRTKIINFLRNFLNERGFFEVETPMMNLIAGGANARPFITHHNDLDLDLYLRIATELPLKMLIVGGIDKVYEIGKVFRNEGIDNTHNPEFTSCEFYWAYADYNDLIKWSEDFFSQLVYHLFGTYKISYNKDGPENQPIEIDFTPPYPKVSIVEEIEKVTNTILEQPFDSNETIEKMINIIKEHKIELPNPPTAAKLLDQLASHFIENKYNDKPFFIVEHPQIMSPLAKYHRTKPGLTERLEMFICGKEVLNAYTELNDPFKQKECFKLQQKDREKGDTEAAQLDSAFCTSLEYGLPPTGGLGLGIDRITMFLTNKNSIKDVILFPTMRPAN
UniProt P9WNZ1, whole entry: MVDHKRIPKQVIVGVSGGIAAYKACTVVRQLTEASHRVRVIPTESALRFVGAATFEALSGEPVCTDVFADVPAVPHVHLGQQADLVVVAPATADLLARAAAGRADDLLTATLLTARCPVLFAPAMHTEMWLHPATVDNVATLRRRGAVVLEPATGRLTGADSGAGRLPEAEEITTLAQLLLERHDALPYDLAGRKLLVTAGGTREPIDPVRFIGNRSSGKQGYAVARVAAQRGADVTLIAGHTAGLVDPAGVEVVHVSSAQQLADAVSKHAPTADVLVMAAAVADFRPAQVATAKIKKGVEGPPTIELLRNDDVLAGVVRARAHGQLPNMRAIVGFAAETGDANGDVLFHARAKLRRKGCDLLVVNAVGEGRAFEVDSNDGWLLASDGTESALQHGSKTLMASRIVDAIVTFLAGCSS

Data taken from ChEMBL document CHEMBL3988442, “University of Dundee, Small-Polar-MMV Screening Library” (2021).

TcHisRS: 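Enzyme assay of histidyl-tRNA synthetase; the read-out is not stated. Target: Histidine-tRNA ligase, Trypanosoma cruzi CL Brener (UniProt Q4DA54). Tested at 30 µM. Higher reads as stronger inhibition (inferred: compounds with an IC50 in retests scored well above the rest). Of about 69,000 compounds tested this way, about 31 (0.045%) reached 50% or more in at least one test.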
LiHisRS: 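Enzyme assay of histidyl-tRNA synthetase; the read-out is not stated. Target: Histidine-tRNA ligase, Leishmania infantum (UniProt A4I591). Concentration: 30 µM. Direction is inferred from retests: higher values go with stronger inhibition. The assay is labelled LdHisRS but filed under L. infantum. About 69,000 compounds were tested under these conditions; 0.6% (about 410) showed 50% or more at least once.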
Toxoplasma: 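Assay of Toxoplasma gondii numbers, read through their beta-galactosidase reporter with a colour substrate. Compounds at 10 µM. Higher reads as fewer parasites (inferred from which compounds were picked for retests). About 67,000 compounds were tested under these conditions; 0.38% (about 260) showed 50% or more at least once.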
PfKRS1: 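Enzyme assay of the cytosolic lysyl-tRNA synthetase in 384-well plates, read by luminescence. Target: Lysine-tRNA ligase, Plasmodium falciparum 3D7 (UniProt Q8IDJ8). Concentration: 30 µM. Direction is inferred from only a few compounds that gave an IC50; most scored high, so higher reads as stronger inhibition. Size under these conditions: about 69,000 compounds, about 49 of them at 50% or above in at least one test.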
CoaBC: 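Enzyme assay of CoaBC with a phosphate dye (Biomol Green) read at 650 nm. Target: Coenzyme A biosynthesis protein CoaBC, Mycobacterium tuberculosis (UniProt P9WNZ1). Concentration: 30 µM. Direction is inferred from only a few compounds that gave an IC50; most scored high, so higher reads as stronger inhibition. Most strong results did not repeat in a second test. Of about 67,000 compounds tested this way, about 40 (0.06%) reached 50% or more in at least one test.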

The filed quantity is “Percent Effect” (%). The record does not define 0% and 100%; most values in the screen are far below 50% and negative numbers occur (in some assays of this library far below -100). This is an unselected part of the compounds tested. A dash means the value is not listed here; it may have been measured.

SMILES | TcHisRS | LiHisRS | Toxoplasma | PfKRS1 | CoaBC
[H][C@@]12CC[C@H](Oc3ccccc3Cl)[C@]1([H])CN(C(=O)Cn1ccnc1)C2 | - | - | 19.54% | - | -
O=C(O)C(F)(F)F.O=C(O)C(F)(F)F.[H][C@@]12CCC(=O)N(CCN(C)C)[C@]1([H])CCN2Cc1cccc(C#N)c1 | - | - | -2.427% | - | -
CC(=O)N1CCC(NC(=O)Cc2csc(C(C)(C)C)n2)CC1 | 2.564% | 17.46% | -2.51% | 5.925% | -3.727%
CSCCCN1CCN(c2ccc(Cl)cn2)CC1 | 4.721% | 8.197% | 11.68% | 11.24% | -2.273%
O=C(Cc1ccc(F)cc1)N1CCn2cc(Cn3cccn3)nc2C1 | 2.762% | 10.53% | - | 3.132% | 3.599%
CN(CC(O)C(F)(F)F)C(=O)Nc1cccc(Cn2cccn2)c1 (stereo not given) | 4.972% | 4.145% | 2.524% | -1.096% | 0.6369%
COc1ccccc1C1(CNc2cc(C(=O)N(C)C)ccn2)CC1 | 14.47% | 7.5% | 1.712% | 3.777% | -
CC(C)N[C@@H]1CO[C@H](CNC(=O)c2ccccc2)[C@H]1O | 3.483% | 8.108% | -1.512% | 4.334% | -0.1965%
CC(Oc1ccccc1C(F)(F)F)C(=O)NCCNC(=O)C1CC1 (stereo not given) | 6.186% | 14.52% | 17.51% | 1.949% | 3.912%
O=C(O)[C@@H]1CN(C(=O)CSCC2CC2)C[C@H]1c1ccncc1 | 11.7% | 7.143% | -1.248% | 2.222% | -1.025%
COCCNC(=O)Nc1ccc(F)c(C(N)=O)c1 | 7.224% | 6.25% | 0.7786% | 6.671% | 0%
Cc1cnc2n(c1=O)CC(C(=O)NC1CC1)CS2 (stereo not given) | 0.8264% | 11.54% | -4.05% | -4.973% | -1.919%
Cc1nccn1CCC1CCCCN1Cc1ccc(N(C)C)nc1 (stereo not given) | 4.564% | 8.738% | -14.32% | 2.291% | -8.036%
CCc1ccc(CN2CCNC(C(=O)N3CCN(C)CC3)C2)nc1 (stereo not given) | 3.191% | 12.86% | -14.23% | 5.568% | 6.762%
CCCNC(=O)COc1ccc(C)cn1 | -0.8264% | 7.619% | 9.597% | 0.606% | 6.237%
O=C(O)C(F)(F)F.[H][C@]12CCC(=O)N(c3cccnc3)[C@@]1([H])CCN2C(=O)c1cnoc1C | - | - | 19.93% | - | -
Cc1nnsc1C(=O)NCc1cccnc1N(C)C | -2.646% | -41.18% | -9.459% | 6.1% | 4.888%
Cc1ccc(C(=O)N2CCC[C@@H]2Cn2nnc3c(O)nc(C)nc32)cc1 | 13.33% | 24.74% | -3.166% | 2.3% | 1.695%
Cc1ccc(NC(=O)CCc2cnn(C)c2)cc1F | 0% | 12.07% | 41.41% | 7.455% | -2.771%
COc1nc2c(cc1C(=O)NC(C)Cc1cnccn1)CCC2 (stereo not given) | 0.5291% | 12% | -17.44% | 0.1233% | 11.33%
Cc1cnc(N2CCc3c(cnc(C)c3C(=O)O)C2)nc1.O=C(O)C(F)(F)F | - | - | -16.7% | - | -
Cc1ccc(N2CCC3(CN(CCO)CCC3(F)F)C2)nn1.O=C(O)C(F)(F)F (stereo not given) | - | - | 15.48% | - | -
CCn1c(CN2CCN(C(=O)C3CCC3)CC2)nc2c(F)cccc21 | 8.876% | 10.71% | -32.51% | -0.6226% | 7.224%
COc1ccc(CNC(C)c2ccccc2Cl)c(OC)c1OC.Cl (stereo not given) | - | - | 1.86% | - | -
CC(C)(C)c1nnc(CN2CCOC(Cn3cccn3)C2)o1 (stereo not given) | 2.256% | 10.11% | - | 8.165% | -4.113%
Cc1nc(CNC(=O)[C@@H]2CCCN2C(=O)OC(C)(C)C)cs1 | 0% | 21.21% | 0.1133% | 2.776% | 3.748%
Fc1ccc(CN2CC[C@H]3O[C@@H](COCc4cccnc4)CC[C@H]32)cc1 | 8.163% | 19% | - | 1.196% | 0.8653%
O=S(=O)(NCCN1CCCCC1Cn1cncn1)c1ccccc1 (stereo not given) | 3.422% | 6.25% | 13.24% | -3.796% | -3.162%
O=C(O)C(F)(F)F.[H][C@]12CC[C@@]3(N=C(c4ccccc4)NC3=O)[C@@]1([H])CN(Cc1ccccc1)C2 | - | - | 4.808% | - | -
COCCOCC(=O)N1C[C@@H]2CC[C@H](Oc3ccccc3Cl)[C@@H]2C1 | 8.209% | -7.368% | - | 1.083% | 4.623%

For reference, 3 entries once more:

* CC(C)N[C@@H]1CO[C@H](CNC(=O)c2ccccc2)[C@H]1O | TcHisRS: 3.483%; LiHisRS: 8.108%; Toxoplasma: -1.512%; PfKRS1: 4.334%; CoaBC: -0.1965%
* COCCOCC(=O)N1C[C@@H]2CC[C@H](Oc3ccccc3Cl)[C@@H]2C1 | TcHisRS: 8.209%; LiHisRS: -7.368%; PfKRS1: 1.083%; CoaBC: 4.623%
* CC(C)(C)c1nnc(CN2CCOC(Cn3cccn3)C2)o1 (stereo not given) | TcHisRS: 2.256%; LiHisRS: 10.11%; PfKRS1: 8.165%; CoaBC: -4.113%